From publication PMC4569850
No constants are given. Whether binding was seen depends on the method and setting. Binding seen in cells or lysates may run through a third protein. Binding calls can cover weak binding; strength is not graded here.

Chains of the proteins cited; added tags and fusions are not shown. Lines headed by an entry give the natural chain unless they say otherwise; changes in a name come on top.
UniProt Q2THW7: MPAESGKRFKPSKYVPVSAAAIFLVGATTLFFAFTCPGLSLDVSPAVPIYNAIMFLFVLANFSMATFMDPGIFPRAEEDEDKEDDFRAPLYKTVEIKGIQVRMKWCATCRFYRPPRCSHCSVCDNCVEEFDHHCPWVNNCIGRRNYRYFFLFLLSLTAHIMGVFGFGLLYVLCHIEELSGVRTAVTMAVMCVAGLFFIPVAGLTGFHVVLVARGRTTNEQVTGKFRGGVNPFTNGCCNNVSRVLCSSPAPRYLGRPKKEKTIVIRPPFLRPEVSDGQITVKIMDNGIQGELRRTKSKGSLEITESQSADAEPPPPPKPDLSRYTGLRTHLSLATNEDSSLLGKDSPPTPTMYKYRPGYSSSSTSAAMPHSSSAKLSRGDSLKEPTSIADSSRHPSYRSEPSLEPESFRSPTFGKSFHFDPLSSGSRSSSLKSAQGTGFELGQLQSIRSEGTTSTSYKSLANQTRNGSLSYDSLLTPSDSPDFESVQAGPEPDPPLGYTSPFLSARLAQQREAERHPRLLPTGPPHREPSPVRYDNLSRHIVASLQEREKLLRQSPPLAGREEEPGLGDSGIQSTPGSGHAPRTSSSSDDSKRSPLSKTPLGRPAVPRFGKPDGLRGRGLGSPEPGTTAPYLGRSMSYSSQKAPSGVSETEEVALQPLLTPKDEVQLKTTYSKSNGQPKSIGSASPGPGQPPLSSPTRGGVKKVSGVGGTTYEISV
UniProt O35116: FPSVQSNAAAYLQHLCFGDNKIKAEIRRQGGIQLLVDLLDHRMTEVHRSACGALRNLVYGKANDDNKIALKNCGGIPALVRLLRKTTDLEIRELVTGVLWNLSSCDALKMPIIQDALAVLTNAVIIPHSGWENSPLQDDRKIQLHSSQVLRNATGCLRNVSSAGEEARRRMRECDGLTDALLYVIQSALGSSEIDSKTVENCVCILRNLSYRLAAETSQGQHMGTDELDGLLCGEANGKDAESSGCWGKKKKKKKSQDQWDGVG

Columns and labels:
[1] = biological target: DHHC5 (palmitoyl-acyl transferase), endogenous in hippocampal neurons (rat (endogenous in hippocampal neurons)) (UniProt Q2THW7); test: co-IP; 14-16 DIV rat hippocampal neurons, unstimulated or lysed at time points after cLTP (glycine) stimulation; lysates incubated overnight at 4 °C with the antibody, protein A/G-Sepharose, four washes with lysis buffer, immunoblot
[2] = biological target: δ-catenin, endogenous in hippocampal neurons (rat (endogenous in hippocampal neurons)) (UniProt O35116); test: as above

binding [1]	binding [2]	Substance
binds		δ-catenin, endogenous in hippocampal neurons (from UniProt O35116)
	binds	DHHC5 (palmitoyl-acyl transferase), endogenous in hippocampal neurons (from UniProt Q2THW7 1-715) (enzyme)
